The target in the test is GST-ENO1 (UniProt P06733). The experiment in a line: affinity purification with mass spectrometry; GST-ENO1 from E. coli lysate supernatant held on GST-resins, washed, incubated with postoperative lymphatic drainage of metastatic OSCC patients at 4 °C overnight; eluted with 20 mM reduced glutathione; LC-MS/MS (n = 4); only the target purified.

Protein sequences, listed by entry. Tags and fused reporters are not part of them. Lines headed by an entry give the natural chain unless they say otherwise; changes in a name come on top. Residues count along the entry.
UniProt P06733: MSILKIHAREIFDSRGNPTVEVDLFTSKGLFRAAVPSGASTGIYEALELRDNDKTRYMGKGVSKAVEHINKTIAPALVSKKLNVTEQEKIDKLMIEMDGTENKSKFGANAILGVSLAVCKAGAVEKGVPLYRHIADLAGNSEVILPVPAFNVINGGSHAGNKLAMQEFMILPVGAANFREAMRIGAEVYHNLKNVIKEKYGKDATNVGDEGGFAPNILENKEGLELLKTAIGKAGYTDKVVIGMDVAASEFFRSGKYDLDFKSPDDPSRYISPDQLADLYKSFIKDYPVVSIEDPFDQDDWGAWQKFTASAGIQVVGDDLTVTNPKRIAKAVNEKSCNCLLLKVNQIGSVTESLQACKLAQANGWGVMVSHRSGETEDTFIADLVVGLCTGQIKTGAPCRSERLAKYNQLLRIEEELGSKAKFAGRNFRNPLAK
UniProt P00915: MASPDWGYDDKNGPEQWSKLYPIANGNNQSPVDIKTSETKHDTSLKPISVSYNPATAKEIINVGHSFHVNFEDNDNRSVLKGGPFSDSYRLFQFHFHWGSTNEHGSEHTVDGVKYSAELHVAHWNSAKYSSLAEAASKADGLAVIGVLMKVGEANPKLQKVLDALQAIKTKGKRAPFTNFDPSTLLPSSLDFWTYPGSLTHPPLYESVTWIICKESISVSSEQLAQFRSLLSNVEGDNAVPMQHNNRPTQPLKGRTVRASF
UniProt P02656, residues 21-99: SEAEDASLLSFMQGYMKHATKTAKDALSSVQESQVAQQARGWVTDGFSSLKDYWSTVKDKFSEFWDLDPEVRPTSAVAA
UniProt P02042: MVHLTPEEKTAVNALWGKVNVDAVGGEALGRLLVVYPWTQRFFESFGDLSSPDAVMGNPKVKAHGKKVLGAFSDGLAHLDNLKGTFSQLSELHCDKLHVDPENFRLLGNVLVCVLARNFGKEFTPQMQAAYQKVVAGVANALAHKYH
UniProt A0A0C4DH38: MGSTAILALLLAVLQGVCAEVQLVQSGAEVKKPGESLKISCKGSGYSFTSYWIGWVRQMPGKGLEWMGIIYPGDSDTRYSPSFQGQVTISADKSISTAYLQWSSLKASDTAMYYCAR

These are yes or no findings as the source states them, for the method shown. In cells and extracts the contact can be indirect. These calls come from enrichment with a bait or labelling near it, and not all partners need be listed.

Regarding “Carbonic anhydrase 1 (from UniProt P00915 1-261) (enzyme)”, the binding result is recorded as “binds”.
As to “Apolipoprotein C-III (from UniProt P02656 21-99)”, the binding entry is on record as “binds”.
For “Hemoglobin subunit delta (from UniProt P02042 1-147)”, the binding result is “binds”.
Under “Immunoglobulin heavy variable 5-51 (from UniProt A0A0C4DH38)” stands “binds”.

B1: Lysozyme C (enzyme, UniProt P61626 19-148)
chain: KVFERCELARTLKRLGMDGYRGISLANWMCLAKWESGYNTRATNYNAGDRSTDYGIFQINSRYWCNDGKTPGAVNACHLSCSALLQDNIADAVACAKRVVRDPQGIRAWVAWRNRCQNRDVRQYVQGCGV
B1: the binding entry was “binds”.

The record behind these values is publication PMC9654972.
